According to PMC12125285:
Changes are numbered by the printed parent chain. In names and notes the source's numbering stands. These are yes or no findings as the source states them, for the method shown. In cells and extracts the contact can be indirect. Binding calls can cover weak binding; strength is not graded here. Where a sequence is shown, tags or fusion partners need not be part of it. One block for each molecule: values may come before it.

By UniProt entry, the sequences of proteins in these tests, tags left out. Where a name states a change or a piece, a line headed by the entry shows the natural chain unless it says otherwise.
UniProt Q9JHF5: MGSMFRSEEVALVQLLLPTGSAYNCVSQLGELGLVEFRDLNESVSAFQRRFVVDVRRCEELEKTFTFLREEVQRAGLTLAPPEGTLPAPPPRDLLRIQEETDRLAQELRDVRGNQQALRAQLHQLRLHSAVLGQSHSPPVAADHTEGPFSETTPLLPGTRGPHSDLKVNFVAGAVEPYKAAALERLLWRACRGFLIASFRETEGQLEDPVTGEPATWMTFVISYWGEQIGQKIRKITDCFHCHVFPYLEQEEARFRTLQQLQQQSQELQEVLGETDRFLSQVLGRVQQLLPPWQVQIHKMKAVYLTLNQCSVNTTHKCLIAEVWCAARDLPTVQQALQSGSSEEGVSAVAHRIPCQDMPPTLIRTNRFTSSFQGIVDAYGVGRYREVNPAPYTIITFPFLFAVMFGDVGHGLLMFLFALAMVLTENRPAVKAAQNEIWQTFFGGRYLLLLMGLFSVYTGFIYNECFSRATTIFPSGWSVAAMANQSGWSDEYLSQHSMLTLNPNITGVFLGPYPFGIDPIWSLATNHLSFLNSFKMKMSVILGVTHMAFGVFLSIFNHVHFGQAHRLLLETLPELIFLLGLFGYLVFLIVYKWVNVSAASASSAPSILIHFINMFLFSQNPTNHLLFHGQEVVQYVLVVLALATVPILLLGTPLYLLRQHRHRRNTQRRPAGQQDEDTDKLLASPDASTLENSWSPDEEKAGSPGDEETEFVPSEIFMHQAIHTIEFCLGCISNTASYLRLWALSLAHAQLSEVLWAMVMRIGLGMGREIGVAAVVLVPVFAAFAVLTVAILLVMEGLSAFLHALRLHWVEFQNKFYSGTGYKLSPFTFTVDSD

How the values were obtained:
[1] = target: T1, FLAG-Rab27A(T23N) (UniProt Q9ERI2); experiment: co-IP; co-expression in HEK293T; lysate in 1% Triton X-100, 10% glycerol, 50 mM Tris-HCl pH 7.4, 150 mM NaCl, 1 mM DTT, 1 mM EDTA; anti-FLAG M2-agarose, 2 h at 4 °C; western blot
T1 sequence: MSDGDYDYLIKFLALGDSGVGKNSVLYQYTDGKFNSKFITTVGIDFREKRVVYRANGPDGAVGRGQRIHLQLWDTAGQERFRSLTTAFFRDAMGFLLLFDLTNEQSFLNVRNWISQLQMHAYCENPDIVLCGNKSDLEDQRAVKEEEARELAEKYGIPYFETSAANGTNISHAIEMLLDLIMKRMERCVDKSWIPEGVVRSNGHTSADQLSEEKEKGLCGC

[2] = target: T1, FLAG-Rab27A(T23N); experiment: co-IP; HEK293T post-nuclear supernatant centrifuged at 100,000 x g for 30 min into membrane and soluble fractions; immunoprecipitation buffer added; anti-FLAG precipitation; western blot
[3] = target: FLAG-tagged a3 subunit isoform of V-ATPase (UniProt Q9JHF5); experiment: co-IP; co-expression in HEK293T; lysate in 1% Triton X-100, 10% glycerol, 50 mM Tris-HCl pH 7.4, 150 mM NaCl, 1 mM DTT, 1 mM EDTA; anti-FLAG M2-agarose, 2 h at 4 °C; western blot

binding [1]: binds
binding [2]: binds
Molecule: V5-tagged a3 subunit isoform of V-ATPase (from UniProt Q9JHF5)

binding [3]: binds
B1: V5-fused Rab27A T23N (GDP-bound form) (protein, UniProt Q9ERI2 1-221)
chain: T1 sequence

binding [3]: no binding
B2: V5-fused Rab27A Q78L (GTP-bound form) (protein, UniProt Q9ERI2 1-221)
chain: T1 sequence with N23T, Q78L

binding [3]: no binding
B3: V5-EPI64, the Rab27A GTPase-activating protein (GAP) (protein, UniProt P58802 1-500)
chain: MAKSSRENGPREPAAGGSLSGTRESLAQGPDAATADELSSLGSDSEANGFAERRIDKFGFIVGSQGAEGALEEVPLEVLRQRESKWLDMLNNWDKWMAKKHKKIRLRCQKGIPPSLRGRAWQYLSGGKVKLQQNPGKFDELDMSPGDPKWLDVIERDLHRQFPFHEMFVSRGGHGQQDLFRVLKAYTLYRPEEGYCQAQAPIAAVLLMHMPAEQAFWCLVQVCEKYLPGYYSEKLEAIQLDGEILFSLLQKVSPVAHKHLSRQKIDPLLYMTEWFMCAFARTLPWSSVLRVWDMFFCEGVKIIFRVGLVLLKHALGSPEKLKACQGQYETIEQLRSLSPKIMQEAFLVQEVIELPVTERQIEREHLIQLRRWQETRGELECRSLPRMHGAKAILDAEPGPRPALQPSPSIRLPPDAALLSSKAKPHKQAQKEQKRTKTSAQLDKSPGLSQATVVTAAGDACPPQGVSPKDPVPQDPTPQNLACHHSQESLTSQESEDTYL
